Experimental data reported in paper PMC11260169.
These are yes or no findings as the source states them, for the method shown. Some entries that bind do so weakly or less than the wild type.

Target: T1, Flotillin2 (human (endogenous in HEK293 GnTl-)) (UniProt Q14254)
T1 sequence (chain, N-myristoylated on Gly2 (as the paper says, citing ref. 19)): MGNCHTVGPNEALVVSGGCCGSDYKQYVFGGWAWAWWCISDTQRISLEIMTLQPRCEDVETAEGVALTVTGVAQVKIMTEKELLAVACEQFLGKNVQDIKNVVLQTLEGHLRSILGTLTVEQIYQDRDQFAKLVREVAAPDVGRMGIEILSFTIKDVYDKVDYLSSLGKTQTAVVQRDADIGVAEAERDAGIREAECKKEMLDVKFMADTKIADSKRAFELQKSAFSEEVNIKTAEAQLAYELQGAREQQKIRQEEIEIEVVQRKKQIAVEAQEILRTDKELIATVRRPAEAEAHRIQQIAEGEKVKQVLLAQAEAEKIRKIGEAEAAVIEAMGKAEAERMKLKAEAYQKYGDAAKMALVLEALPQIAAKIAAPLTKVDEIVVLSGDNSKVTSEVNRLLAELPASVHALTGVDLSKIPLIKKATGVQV
Assay: cryo-EM structure; endogenous Flotillin cage on native membrane vesicles from HEK293 GnTl- cells (NEM, Ca2+ GPMV method, sonicated, sucrose gradient), without detergent; single-particle analysis, C44 then C22 symmetry, 3.5 Å

binding: binds
B1: Flotillin1 (protein, UniProt O75955 1-427)
chain: MFFTCGPNEAMVVSGFCRSPPVMVAGGRVFVLPCIQQIQRISLNTLTLNVKSEKVYTRHGVPISVTGIAQVKIQGQNKEMLAAACQMFLGKTEAEIAHIALETLEGHQRAIMAHMTVEEIYKDRQKFSEQVFKVASSDLVNMGISVVSYTLKDIHDDQDYLHSLGKARTAQVQKDARIGEAEAKRDAGIREAKAKQEKVSAQYLSEIEMAKAQRDYELKKAAYDIEVNTRRAQADLAYQLQVAKTKQQIEEQRVQVQVVERAQQVAVQEQEIARREKELEARVRKPAEAERYKLERLAEAEKSQLIMQAEAEAASVRMRGEAEAFAIGARARAEAEQMAKKAEAFQLYQEAAQLDMLLEKLPQVAEEISGPLTSANKITLVSSGSGTMGAAKVTGEVLDILTRLPESVERLTGVSISQVNHKPLRTA
